Measured values taken from publication PMC9241942 (Microbiology Spectrum, 2022).

Experiment: Recovery of vancomycin standard spiked into reference stool aliquots
Design: species or system human

CN[C@H](CC(C)C)C(=O)N[C@H]1C(=O)N[C@@H](CC(N)=O)C(=O)N[C@H]2C(=O)N[C@H]3C(=O)N[C@H](C(=O)N[C@H](C(=O)O)c4cc(O)cc(O)c4-c4cc3ccc4O)[C@H](O)c3ccc(c(Cl)c3)Oc3cc2cc(c3O[C@@H]2O[C@H](CO)[C@@H](O)[C@H](O)[C@H]2O[C@H]2C[C@](C)(N)[C@H](O)[C@H](C)O2)Oc2ccc(cc2Cl)[C@H]1O [vancomycin]
Recovery (mean ± SD, %) (1 μg spiked, mean of aliquots A1-A3): 110 ± 10%
Recovery (mean ± SD, %) (10 μg spiked, mean of aliquots A4-A6): 85 ± 5%
Recovery (mean ± SD, %) (50 μg spiked, mean of aliquots A7-A9): 88 ± 5%
Recovery (mean ± SD, %) (150 μg spiked, mean of aliquots A10-A12): 93 ± 1%
